The nature of the data set: Formation of fluorescent photoproduct-protein conjugates (fluorescence emission).
[1] abbreviates: MC54-derived photoproducts with the given solvent/protein.

Consider `CCO` [Ethanol], for which, under setting [1], the Fluorescence entry was “no”.

Regarding `CCCCN1C(=O)C(=C/C=C/C=C2\Oc3ccccc3N2CCCS(=O)(=O)[O-])C(=O)N(CCCC)C1=S.[Na+]` [MC540], the Fluorescence entry (conjugates formed by photoproducts of the dye, alpha-medium supplemented with 10% fetal bovine serum) is “no”.

For the compound “Carboxymethylated bovine serum albumin: commercial product from Sigma Chemical Co.”, the Fluorescence result under setting [1] is “yes”.

Take “Bovine serum albumin: carrier protein for conjugates with MC54-derived photoproducts”: the Fluorescence result under setting [1] is given as “yes”.
